Assay [1] concerns the target T1, Rb (human (endogenous in MDA-MB-231)) (UniProt P06400).
T1 sequence: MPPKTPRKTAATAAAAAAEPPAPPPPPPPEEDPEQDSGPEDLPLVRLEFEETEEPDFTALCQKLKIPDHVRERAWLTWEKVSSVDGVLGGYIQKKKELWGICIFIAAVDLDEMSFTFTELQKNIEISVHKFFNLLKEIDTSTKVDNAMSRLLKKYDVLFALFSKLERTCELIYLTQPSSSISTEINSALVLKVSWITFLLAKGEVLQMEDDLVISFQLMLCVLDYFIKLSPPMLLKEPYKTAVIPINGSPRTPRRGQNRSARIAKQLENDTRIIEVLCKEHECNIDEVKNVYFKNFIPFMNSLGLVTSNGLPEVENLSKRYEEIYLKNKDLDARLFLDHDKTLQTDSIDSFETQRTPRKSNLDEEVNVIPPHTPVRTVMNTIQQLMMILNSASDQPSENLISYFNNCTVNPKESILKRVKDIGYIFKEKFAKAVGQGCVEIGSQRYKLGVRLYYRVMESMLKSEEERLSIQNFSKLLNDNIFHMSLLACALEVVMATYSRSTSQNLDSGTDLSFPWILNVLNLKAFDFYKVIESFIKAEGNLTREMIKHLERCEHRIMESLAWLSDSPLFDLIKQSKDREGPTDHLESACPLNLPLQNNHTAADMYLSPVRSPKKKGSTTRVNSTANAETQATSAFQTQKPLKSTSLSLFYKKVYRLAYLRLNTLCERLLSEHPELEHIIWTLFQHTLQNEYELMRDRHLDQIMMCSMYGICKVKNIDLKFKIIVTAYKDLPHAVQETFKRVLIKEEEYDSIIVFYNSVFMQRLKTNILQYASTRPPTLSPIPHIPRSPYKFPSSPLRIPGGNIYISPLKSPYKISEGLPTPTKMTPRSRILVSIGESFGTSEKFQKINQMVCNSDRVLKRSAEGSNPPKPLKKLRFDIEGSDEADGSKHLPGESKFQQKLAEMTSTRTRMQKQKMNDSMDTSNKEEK
The assay can be described thus: co-IP; endogenous proteins in RIPA cell lysate; antibody and protein A/G magnetic beads overnight at 4 °C, beads washed 3 times with lysis buffer, western blotting; for Fig. 4D cells with si-CENPF or si-control.

By UniProt entry, the sequences of proteins in these tests, tags left out.
UniProt P49454: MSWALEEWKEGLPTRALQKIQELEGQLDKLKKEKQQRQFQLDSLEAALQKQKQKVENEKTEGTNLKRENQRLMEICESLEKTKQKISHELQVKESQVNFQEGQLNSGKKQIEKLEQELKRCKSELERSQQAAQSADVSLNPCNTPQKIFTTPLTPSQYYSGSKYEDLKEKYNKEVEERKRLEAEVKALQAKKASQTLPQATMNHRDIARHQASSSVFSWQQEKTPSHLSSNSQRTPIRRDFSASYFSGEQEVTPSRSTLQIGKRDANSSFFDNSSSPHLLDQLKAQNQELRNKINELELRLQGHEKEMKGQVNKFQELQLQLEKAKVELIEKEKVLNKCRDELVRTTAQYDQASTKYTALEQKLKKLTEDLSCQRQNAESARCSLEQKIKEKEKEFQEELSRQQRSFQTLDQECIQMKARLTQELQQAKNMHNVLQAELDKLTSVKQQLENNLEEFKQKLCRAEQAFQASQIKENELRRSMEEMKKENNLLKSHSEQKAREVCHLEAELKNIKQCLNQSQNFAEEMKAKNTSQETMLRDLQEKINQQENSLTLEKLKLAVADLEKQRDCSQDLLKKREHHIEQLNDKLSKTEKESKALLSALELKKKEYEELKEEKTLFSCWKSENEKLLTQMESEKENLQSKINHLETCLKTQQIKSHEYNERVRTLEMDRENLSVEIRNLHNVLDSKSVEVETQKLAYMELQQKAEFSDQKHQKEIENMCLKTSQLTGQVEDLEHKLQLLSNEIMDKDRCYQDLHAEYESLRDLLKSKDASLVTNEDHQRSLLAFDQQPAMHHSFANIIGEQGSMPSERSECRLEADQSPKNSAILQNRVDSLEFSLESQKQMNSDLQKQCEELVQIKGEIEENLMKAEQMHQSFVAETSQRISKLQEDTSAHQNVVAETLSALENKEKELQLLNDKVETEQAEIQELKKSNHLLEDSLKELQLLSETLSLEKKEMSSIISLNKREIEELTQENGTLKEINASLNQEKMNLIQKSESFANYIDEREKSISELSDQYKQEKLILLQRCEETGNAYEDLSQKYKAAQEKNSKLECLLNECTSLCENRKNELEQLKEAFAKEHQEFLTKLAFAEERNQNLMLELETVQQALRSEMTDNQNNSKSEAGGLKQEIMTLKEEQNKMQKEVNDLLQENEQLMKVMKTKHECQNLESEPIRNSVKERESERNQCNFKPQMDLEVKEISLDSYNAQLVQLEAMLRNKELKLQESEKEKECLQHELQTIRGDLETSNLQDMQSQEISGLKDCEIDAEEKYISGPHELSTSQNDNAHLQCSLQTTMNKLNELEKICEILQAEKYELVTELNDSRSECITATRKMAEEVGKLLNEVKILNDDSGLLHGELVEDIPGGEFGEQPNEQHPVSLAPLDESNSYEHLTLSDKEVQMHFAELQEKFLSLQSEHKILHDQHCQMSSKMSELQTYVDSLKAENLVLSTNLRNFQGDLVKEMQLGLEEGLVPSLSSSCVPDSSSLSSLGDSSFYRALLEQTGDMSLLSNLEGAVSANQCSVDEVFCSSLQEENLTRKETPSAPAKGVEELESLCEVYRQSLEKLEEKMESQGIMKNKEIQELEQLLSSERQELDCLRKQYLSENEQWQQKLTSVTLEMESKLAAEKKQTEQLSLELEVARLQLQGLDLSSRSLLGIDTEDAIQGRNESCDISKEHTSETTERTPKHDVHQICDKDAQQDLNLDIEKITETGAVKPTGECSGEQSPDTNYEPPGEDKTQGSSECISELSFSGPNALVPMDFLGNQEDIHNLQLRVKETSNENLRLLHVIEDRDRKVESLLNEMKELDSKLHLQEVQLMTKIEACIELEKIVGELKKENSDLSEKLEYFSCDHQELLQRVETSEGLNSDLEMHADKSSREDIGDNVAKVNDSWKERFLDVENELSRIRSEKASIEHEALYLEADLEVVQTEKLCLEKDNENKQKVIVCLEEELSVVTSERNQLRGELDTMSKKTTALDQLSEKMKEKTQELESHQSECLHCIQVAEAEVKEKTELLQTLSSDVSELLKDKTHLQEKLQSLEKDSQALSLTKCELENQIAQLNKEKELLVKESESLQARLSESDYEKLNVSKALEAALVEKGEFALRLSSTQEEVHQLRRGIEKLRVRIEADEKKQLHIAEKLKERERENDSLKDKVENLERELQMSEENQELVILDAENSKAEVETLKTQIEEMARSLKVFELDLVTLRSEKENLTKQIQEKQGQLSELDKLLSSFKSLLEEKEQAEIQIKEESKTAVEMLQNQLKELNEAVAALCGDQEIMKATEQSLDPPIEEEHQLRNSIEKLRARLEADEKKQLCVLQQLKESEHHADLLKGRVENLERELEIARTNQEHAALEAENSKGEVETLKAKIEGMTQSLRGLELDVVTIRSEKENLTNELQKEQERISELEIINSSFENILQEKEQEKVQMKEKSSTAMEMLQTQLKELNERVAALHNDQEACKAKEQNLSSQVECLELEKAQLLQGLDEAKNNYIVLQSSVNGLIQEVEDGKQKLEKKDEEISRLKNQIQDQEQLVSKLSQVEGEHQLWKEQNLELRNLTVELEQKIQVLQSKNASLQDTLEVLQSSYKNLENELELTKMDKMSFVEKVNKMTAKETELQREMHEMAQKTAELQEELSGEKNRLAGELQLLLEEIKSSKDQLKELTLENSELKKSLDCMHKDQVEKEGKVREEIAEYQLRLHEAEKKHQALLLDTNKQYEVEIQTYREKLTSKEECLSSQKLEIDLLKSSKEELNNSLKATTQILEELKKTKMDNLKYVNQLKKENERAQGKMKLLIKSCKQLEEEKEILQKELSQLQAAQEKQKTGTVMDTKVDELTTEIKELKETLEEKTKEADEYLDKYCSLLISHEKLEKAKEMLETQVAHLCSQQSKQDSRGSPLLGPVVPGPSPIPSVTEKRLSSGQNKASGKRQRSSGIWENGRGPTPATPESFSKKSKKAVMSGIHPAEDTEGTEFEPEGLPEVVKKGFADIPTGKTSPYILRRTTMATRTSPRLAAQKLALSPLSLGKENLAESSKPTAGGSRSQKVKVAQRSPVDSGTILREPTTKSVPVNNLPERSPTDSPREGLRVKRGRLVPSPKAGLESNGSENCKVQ

The target in assay [2] is CENPF (centromere protein) (human (endogenous in MDA-MB-231)) (UniProt P49454). Described as above.

These are yes or no findings as the source states them, for the method shown. Binding seen in cells or lysates may run through a third protein. Some results given as binding are weak or reduced against the parent protein; the word gives no strength.

On to “CENPF (centromere protein) (from UniProt P49454 1-3114)”, for which, in assay [1], the binding entry is given as “binds”.

B1: Rb (protein, UniProt P06400 1-928)
chain: MPPKTPRKTAATAAAAAAEPPAPPPPPPPEEDPEQDSGPEDLPLVRLEFEETEEPDFTALCQKLKIPDHVRERAWLTWEKVSSVDGVLGGYIQKKKELWGICIFIAAVDLDEMSFTFTELQKNIEISVHKFFNLLKEIDTSTKVDNAMSRLLKKYDVLFALFSKLERTCELIYLTQPSSSISTEINSALVLKVSWITFLLAKGEVLQMEDDLVISFQLMLCVLDYFIKLSPPMLLKEPYKTAVIPINGSPRTPRRGQNRSARIAKQLENDTRIIEVLCKEHECNIDEVKNVYFKNFIPFMNSLGLVTSNGLPEVENLSKRYEEIYLKNKDLDARLFLDHDKTLQTDSIDSFETQRTPRKSNLDEEVNVIPPHTPVRTVMNTIQQLMMILNSASDQPSENLISYFNNCTVNPKESILKRVKDIGYIFKEKFAKAVGQGCVEIGSQRYKLGVRLYYRVMESMLKSEEERLSIQNFSKLLNDNIFHMSLLACALEVVMATYSRSTSQNLDSGTDLSFPWILNVLNLKAFDFYKVIESFIKAEGNLTREMIKHLERCEHRIMESLAWLSDSPLFDLIKQSKDREGPTDHLESACPLNLPLQNNHTAADMYLSPVRSPKKKGSTTRVNSTANAETQATSAFQTQKPLKSTSLSLFYKKVYRLAYLRLNTLCERLLSEHPELEHIIWTLFQHTLQNEYELMRDRHLDQIMMCSMYGICKVKNIDLKFKIIVTAYKDLPHAVQETFKRVLIKEEEYDSIIVFYNSVFMQRLKTNILQYASTRPPTLSPIPHIPRSPYKFPSSPLRIPGGNIYISPLKSPYKISEGLPTPTKMTPRSRILVSIGESFGTSEKFQKINQMVCNSDRVLKRSAEGSNPPKPLKKLRFDIEGSDEADGSKHLPGESKFQQKLAEMTSTRTRMQKQKMNDSMDTSNKEEK
For the molecule B1, the binding result in assay [2] is on record as “binds”.
